In publication doi:10.1101/266833:
No constants are given. Whether binding was seen depends on the method and setting. In cells and extracts the contact can be indirect. Here binding means that the protein was enriched with, or labelled near, the bait; the list need not be complete.

T1: Upf1-TAP (S. cerevisiae) (UniProt P30771)
T1 sequence: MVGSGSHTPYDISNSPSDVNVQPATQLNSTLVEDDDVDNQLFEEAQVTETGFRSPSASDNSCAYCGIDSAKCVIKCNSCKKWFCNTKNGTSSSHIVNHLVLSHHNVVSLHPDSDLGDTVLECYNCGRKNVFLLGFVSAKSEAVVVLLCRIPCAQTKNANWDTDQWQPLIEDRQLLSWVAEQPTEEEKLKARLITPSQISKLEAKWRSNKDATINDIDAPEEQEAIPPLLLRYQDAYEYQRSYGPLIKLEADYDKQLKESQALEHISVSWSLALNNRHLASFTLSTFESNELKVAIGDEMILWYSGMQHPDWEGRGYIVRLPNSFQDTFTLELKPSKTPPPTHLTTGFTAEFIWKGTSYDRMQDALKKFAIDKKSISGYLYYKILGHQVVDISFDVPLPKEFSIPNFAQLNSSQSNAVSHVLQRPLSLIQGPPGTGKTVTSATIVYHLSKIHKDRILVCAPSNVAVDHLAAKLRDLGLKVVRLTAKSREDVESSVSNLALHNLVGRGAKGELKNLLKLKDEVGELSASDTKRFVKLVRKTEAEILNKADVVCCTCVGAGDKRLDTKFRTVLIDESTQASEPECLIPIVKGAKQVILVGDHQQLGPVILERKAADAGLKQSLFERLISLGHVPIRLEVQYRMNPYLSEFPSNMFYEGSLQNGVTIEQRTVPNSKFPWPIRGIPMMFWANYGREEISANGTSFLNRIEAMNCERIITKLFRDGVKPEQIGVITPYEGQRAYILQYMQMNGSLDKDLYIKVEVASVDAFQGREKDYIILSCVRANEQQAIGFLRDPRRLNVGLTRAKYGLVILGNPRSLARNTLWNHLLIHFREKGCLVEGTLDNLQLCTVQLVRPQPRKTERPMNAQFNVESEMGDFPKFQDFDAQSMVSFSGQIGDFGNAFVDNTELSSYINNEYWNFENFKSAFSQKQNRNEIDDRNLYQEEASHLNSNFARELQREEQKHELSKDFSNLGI

T2: TAP-Upf1-HD-Cter (208-971) (S. cerevisiae) (UniProt P30771)
T2 sequence: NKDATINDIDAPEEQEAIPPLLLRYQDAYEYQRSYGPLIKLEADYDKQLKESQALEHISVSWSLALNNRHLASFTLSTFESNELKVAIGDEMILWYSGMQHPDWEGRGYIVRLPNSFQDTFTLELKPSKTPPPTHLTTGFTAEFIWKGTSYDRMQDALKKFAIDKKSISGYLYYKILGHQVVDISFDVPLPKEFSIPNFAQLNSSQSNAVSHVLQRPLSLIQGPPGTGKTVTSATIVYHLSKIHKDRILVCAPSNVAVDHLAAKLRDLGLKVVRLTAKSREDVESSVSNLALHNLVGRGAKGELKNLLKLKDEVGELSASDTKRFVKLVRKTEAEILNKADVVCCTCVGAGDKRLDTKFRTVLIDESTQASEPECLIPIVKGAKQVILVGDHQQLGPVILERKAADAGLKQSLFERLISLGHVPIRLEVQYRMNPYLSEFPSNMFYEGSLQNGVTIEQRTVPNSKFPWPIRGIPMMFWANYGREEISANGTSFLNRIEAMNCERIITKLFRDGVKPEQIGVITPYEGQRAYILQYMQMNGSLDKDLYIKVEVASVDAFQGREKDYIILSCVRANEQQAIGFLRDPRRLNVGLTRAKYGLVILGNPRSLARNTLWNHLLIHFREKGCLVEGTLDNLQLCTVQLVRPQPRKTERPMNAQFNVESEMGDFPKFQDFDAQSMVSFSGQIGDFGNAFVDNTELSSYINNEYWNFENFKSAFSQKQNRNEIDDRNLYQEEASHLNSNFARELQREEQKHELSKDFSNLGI

T3: TAP-Upf1-HD (208-853) (S. cerevisiae) (UniProt P30771)
T3 sequence: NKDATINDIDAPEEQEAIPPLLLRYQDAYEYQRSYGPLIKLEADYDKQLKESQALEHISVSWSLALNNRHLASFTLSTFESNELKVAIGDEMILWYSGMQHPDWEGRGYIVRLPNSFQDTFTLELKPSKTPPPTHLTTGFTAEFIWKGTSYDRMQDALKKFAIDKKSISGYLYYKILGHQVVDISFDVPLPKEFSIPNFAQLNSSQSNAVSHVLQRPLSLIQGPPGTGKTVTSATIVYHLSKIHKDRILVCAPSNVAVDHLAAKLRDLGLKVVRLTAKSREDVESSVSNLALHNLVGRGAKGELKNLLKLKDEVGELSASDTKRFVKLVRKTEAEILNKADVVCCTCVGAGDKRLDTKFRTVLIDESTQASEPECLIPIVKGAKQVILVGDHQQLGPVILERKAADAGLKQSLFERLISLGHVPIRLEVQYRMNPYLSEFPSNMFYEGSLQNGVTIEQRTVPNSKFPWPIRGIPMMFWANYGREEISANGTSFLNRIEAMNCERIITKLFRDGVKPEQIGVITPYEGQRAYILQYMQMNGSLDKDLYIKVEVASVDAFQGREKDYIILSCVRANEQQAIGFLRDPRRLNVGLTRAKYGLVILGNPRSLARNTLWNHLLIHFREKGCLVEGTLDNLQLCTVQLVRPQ

T4: Dcp1-TAP (S. cerevisiae) (UniProt Q12517)
T4 sequence: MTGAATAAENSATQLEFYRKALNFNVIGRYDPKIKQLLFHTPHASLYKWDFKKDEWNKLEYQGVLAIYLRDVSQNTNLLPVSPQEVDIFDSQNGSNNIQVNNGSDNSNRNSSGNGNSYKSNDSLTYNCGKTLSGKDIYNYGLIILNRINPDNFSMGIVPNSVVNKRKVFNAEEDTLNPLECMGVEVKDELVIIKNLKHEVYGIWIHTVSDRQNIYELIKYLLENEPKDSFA


Legend:
Assay in all cases: affinity purification with mass spectrometry
[1] = biological target: T1, Upf1-TAP (S. cerevisiae)
[2] = biological target: T2, TAP-Upf1-HD-Cter (208-971) (S. cerevisiae)
[3] = biological target: T3, TAP-Upf1-HD (208-853) (S. cerevisiae)
[4] = biological target: T4, Dcp1-TAP (S. cerevisiae)

| binding [1] | binding [2] | binding [3] | binding [4] | Binder |
| --- | --- | --- | --- | --- |
| binds | binds | binds |  | Nmd4 (protein, UniProt Q12129 1-218) MTQYNFIIDASAFEKGLGNIKRWCSDCTEAVTLNFYIPTFTLNELDFLQQRRKSFAARESLKFIDRLDDSKFANLKVFIEFPEVLDIILWSDVMEHNDSSGKINIAKLPKRLKNLLKSCIYKCYLEGNEGLHWFLISEDPQIREMAMQCNIPSCSIVDVDSILSKDMNDKSFRESEKFNNMMLKNGTKEESENGREIIRTNFNKTVYASRGTGELWSP |
| binds | binds |  | binds | Ebs1 (protein, UniProt Q03466 1-884) MEPSNTQKEDLPTAFNGIKSQLNSILKSNQLFQDYALLNGFLAFVHSKLNAAILTSIESQCGKSFAADLDSFDQSSISSILDFSWESVHYPIFKWFQMWRNYILFEKENKKQQTKFIDFRKMNSKMLKFFKTVQNFYVNVINTVYKKYDISVLLPKRIIQDLKLSDIENTTNVGDILAVKTFNSSSPLAHLIPTLFHRCLLFLGTAYRYKTLLEEISNKYSISNFKKSLDFFRLASLVLPSAGETYSQAGAIFLQTGNLGIAVFNFVKGMMTKMPSPVSIKNFGALMVDNKSSLNRSLHTTIMNTYLQESKGPRTPAKEILEFYFLGLFGSVWSPTSWRDDTKPNQLNNGIKLRHLENALYETMSARYLNNIKTIFHNLIITIGGFHLLLKRRSDVSAKTLKDLRSNELDYLNFAFKYIAHILNDIVKESWSENPEVSEILGMVRIINCWIKANPMVLQYSQSNLEFVNALAYLINDIVKKKPSPSFSITEHIPKRTYWFEEDLMVKGLSFVNFQLSDFDDYEKILEMDHSLDRLIGNPPLCDKLSASSEMLLRLQAVVNISSQLLQNNNCGVEWSDNKSRYIFNKKIGFKETVKNSMKTSKQSNEKAKLQRKNKPSTTNGSISMADLERQMRSSSLDSFSPTMGYSGSSVPMAPDTFNVKPSGTITGNKVNVELLKIELSGQNADGAITNISPGYSNAAISSSNSTDESSFDLNNILSSMQQKHAEKSFAKSMQGVNEQIPANDVCHQAQRPMQGGLYSSQQPSSMSSLNSAYQNASMPPSASMVSYPYPFLNQQGQGVFPPYNAQNLQWQSEAYSLKSMNFANPTWLGDQYQTSAPSSAYAQAQRQMFQQPMQQDVGKYMQFPFDAQSNTDSMRGNSRNNMF |
